Here are results for three sequences from paper PMC7271526.

The exact form of at least one protein or probe is not confirmed. No signal at the amounts used counts as a negative. Where a protein sequence is shown, tags need not be part of it.

The data set concerns the target T1, CiMYB42 (UniProt V4TPP5).
T1 sequence (looked up, limits assumed): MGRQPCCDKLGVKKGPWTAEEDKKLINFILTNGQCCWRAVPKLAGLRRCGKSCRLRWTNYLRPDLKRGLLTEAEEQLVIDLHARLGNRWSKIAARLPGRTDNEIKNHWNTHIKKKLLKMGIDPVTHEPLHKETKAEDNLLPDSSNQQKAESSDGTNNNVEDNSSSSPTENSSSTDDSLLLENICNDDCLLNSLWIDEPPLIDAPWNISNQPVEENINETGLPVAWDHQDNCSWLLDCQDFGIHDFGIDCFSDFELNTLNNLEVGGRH
As to the kind of experiment: EMSA. The settings on record: Chemiluminescent EMSA Kit (Beyotime), polyacrylamide gel; pH and temperature not stated; recombinant protein; label: biotin. Background: Mobility shift assays separate free from complexed probe on a gel.

As to “TGCTATAGTATACCAAACACGAGATAATA (double strand) [OSC-1]”, the binding result was “no binding”.

As for “GTAATTGTAGAATAACTACGCTATGAAATA (double strand) [OSC-3]”, the binding result is reported as “no binding”.

As to “ACTAGCGTCAACAAATTGTTGAATTTAAA (double strand) [OSC-2]”, the binding result is given as “binds”.
